The target in this assay is Low-density lipoprotein receptor-related protein 4 (mouse (endogenous in C2C12)) (UniProt Q8VI56). Briefly: co-IP; C2C12 cells treated with 10 ug/mL LRP4 antibody for 30 min, lysed in 50 mM Tris, 100 mM NaCl, 0.5% Triton X-100, pH 7.5, 1 mM PMSF; anti-SNX17, anti-LRP4 or control IgG on protein A/G magnetic beads, 4°C 12 h; western blotting.

Protein sequences, listed by entry. Tags and fused reporters are not part of them. Residues count along the entry.
UniProt Q8VI56, residues 21-1905: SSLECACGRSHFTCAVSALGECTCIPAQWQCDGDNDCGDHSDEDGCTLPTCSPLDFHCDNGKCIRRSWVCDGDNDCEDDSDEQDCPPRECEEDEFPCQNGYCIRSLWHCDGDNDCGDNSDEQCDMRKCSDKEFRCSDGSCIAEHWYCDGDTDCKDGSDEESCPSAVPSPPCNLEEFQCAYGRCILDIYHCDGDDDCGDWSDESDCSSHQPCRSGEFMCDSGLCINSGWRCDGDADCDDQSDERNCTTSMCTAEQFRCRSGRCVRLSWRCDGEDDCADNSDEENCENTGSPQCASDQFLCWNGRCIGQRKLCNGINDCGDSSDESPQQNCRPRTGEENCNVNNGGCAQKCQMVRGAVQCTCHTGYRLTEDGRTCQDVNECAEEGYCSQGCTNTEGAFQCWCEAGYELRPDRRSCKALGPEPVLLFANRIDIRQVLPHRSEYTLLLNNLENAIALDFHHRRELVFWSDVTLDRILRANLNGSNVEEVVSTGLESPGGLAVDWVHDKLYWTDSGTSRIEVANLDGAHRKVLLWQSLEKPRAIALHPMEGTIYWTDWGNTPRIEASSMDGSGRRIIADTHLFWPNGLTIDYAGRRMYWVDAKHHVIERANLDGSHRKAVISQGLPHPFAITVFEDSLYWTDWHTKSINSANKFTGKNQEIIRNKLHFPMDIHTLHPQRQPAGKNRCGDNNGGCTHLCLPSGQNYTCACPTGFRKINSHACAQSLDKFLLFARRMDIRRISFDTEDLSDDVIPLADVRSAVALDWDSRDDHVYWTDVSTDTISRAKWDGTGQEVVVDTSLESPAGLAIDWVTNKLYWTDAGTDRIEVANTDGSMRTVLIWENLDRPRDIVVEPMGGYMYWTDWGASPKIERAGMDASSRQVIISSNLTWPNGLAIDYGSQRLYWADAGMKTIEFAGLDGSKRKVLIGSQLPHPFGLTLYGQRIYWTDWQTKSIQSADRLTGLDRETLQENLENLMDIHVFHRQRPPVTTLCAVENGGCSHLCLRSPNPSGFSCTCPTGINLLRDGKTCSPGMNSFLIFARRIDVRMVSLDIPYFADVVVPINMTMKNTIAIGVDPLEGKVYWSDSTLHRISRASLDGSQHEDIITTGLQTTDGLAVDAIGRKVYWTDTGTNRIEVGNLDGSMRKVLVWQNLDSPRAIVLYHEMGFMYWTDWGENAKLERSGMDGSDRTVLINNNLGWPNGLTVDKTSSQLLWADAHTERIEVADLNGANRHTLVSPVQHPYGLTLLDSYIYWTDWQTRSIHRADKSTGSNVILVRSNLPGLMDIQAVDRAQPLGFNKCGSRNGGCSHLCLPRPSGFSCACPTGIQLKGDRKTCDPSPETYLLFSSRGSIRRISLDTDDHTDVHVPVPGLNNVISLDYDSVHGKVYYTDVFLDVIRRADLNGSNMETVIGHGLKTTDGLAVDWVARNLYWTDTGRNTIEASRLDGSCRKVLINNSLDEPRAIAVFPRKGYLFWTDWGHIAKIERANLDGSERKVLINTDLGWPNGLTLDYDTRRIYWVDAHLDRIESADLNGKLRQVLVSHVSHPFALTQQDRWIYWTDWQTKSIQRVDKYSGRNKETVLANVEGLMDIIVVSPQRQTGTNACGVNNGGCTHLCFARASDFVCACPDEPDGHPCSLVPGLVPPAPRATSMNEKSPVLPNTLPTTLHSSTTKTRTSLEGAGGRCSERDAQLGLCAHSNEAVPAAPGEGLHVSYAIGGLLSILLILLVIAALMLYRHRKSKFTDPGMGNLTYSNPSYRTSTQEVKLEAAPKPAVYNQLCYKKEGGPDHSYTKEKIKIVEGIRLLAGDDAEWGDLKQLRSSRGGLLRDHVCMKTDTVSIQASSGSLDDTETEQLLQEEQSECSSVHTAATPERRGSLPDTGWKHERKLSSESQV

Results are given in words; binding and its absence hold for the method and conditions named. Binding seen in cells or lysates may run through a third protein. Some results given as binding are weak or reduced against the parent protein; the word gives no strength.

B1: Sorting nexin 17 (protein, UniProt Q8BVL3 1-470)
chain: MHFSIPETESRSGDSGGSAYVAYNIHVNGVLHCRVRYSQLLGLHEQLRKEYGANVVPAFPPKKLFSLTPAEVEQRREQLEKYMQAVRQDPLLGSSETFNSFLRRAQQETQQVPTEEVSLEVLLSNGQKVLVTVLTSDQTEDVLEAVAAKLDLPDDLIGYFSLFLVREKEDGAFSFVRKLQEFELPYVSVTSLRSQEYKIVLRKSYWDSAYDDDVMENRVGLNLLYAQTVSDIEHGWILVTKEQHRQLKSLQEKVSKKEFLRLAQTLRHYGYLRFDACVADFPEKDCPVVVSAGNSELSLQLRLPGQQLREGSFRVTRMRCWRVTSSVPLPSGGTSSPSRGRGEVRLELAFEYLMSKDRLQWVTITSPQAIMMSICLQSMVDELMVKKSGGSIRKMLRRRVGGTLRRSDSQQAVKSPPLLESPDASRESMVKLSSKLSAVSLRGIGSPSTDASASAVHGNFAFEGIGDEDL
Regarding B1, the binding result is “binds”.
